The target of this experiment is RgNanH (residues 26–723), intramolecular trans-sialidase from Ruminococcus gnavus ATCC 29149 (Ruminococcus gnavus ATCC 29149) (UniProt A7B557). Put plainly: SEC-MALS; RgNanH with the His tag cleaved; NGC chromatography system with DAWN HELEOS II MALS and Optilab T-rEX detectors; measured 73 kDa against 77 kDa expected; both purified.

No constants are given. Whether binding was seen depends on the method and setting.

B1: RgNanH (residues 26–723), intramolecular trans-sialidase from Ruminococcus gnavus ATCC 29149 (enzyme, UniProt A7B557 26-723)
chain: QEAQTDVIEAVAEKKQDTESSSVPVLQKEGIEISEGTGYDLSKEPGAATVKALEQGTIVISYKTTSENAIQSLLSVGNGTKGNQDRHFHLYITNAGGVGMELRNTDGEFKYTLDCPAAVRGSYKGERVSNTVALKADKENKQYKLFANGELIATLDQEAFKFISDITGVDNVMLGGTMRQGTVAYPFGGSIERMQVYRDVLSDDELIAVTGKTIYAENIFYAGDATKSNYFRIPSLLALDSGTVIAAADARYGGTHDAKSKINTAFAKSTDGGKTWGQPTLPLKFDDYVAKNIDWPRDSVGKNVQIQGSASYIDPVLLEDKETHRVFLFADMMPAGIGSSNASVGSGFKEVDGKKYLKLHWKDDAAGTYDYSVRENGTIYNDTTNSATEYSVDGEYNLYKNGNAMLCKQYDYNFEGTKLLETQTDTDVNMNVFYKDADFKVFPTTYLAMKYSDDEGETWSDLQIVSTFKPEESKFLVLGPGVGKQIANGEHAGRLIVPLYSKSSAELGFMYSDDHGNNWTYVEADQNTGGATAEAQIVEMPDGSLKTYLRTGSGYIAQVMSTDGGETWSERVPLTEIATTGYGTQLSVINYSQPVDGKPAILLSAPNATNGRKNGKIWIGLISETGNSGKDKYSVDWKYCYSVDTPQMGYSYSCLTELPDGEIGLLYEKYDSWSRNELHLKNILKYERFNIDELKVQP
B1: the binding entry is listed as “no binding”.

(Values after article PMC5736709, “Unravelling the specificity and mechanism of sialic acid recognition by the gut symbiont Ruminococcus gnavus” (Nature Communications, 2017).)
